We go through 1 molecule from publication PMC11535546.

Amino acid sequences for entries named in this document (tags omitted). A change or cut given only in a name is not applied to a line headed by its entry.
UniProt Q86WV6: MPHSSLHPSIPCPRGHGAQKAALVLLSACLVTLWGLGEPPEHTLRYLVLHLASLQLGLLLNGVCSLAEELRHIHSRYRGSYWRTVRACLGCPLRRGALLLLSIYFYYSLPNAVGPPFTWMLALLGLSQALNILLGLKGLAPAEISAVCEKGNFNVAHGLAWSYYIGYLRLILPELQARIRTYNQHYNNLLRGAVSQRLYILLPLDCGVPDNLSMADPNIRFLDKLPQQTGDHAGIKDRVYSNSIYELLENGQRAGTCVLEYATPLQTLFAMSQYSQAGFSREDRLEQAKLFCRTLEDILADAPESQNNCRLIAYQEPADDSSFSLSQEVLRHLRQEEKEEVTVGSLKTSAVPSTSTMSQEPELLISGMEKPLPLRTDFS

These are yes or no findings as the source states them, for the method shown. In cells and extracts the contact can be indirect. These calls come from enrichment with a bait or labelling near it, and not all partners need be listed.

Assay [1] concerns the target STING, wild-type, stably expressed in DLD1 cells (human) (UniProt Q86WV6). As to the kind of experiment: affinity purification with mass spectrometry; STING, wild-type or R281Q, stably expressed in DLD1 cells; STING interactome by nano LC/MS/MS, label-free quantification.
In assay [2] the target is constitutively activated STING (R281Q), stably expressed in DLD1 cells (human) (UniProt Q86WV6). The description is as above.

B1: Zyxin, endogenous in DLD1 cells (protein, UniProt Q15942 1-572)
chain: MAAPRPSPAISVSVSAPAFYAPQKKFGPVVAPKPKVNPFRPGDSEPPPAPGAQRAQMGRVGEIPPPPPEDFPLPPPPLAGDGDDAEGALGGAFPPPPPPIEESFPPAPLEEEIFPSPPPPPEEEGGPEAPIPPPPQPREKVSSIDLEIDSLSSLLDDMTKNDPFKARVSSGYVPPPVATPFSSKSSTKPAAGGTAPLPPWKSPSSSQPLPQVPAPAQSQTQFHVQPQPQPKPQVQLHVQSQTQPVSLANTQPRGPPASSPAPAPKFSPVTPKFTPVASKFSPGAPGGSGSQPNQKLGHPEALSAGTGSPQPPSFTYAQQREKPRVQEKQHPVPPPAQNQNQVRSPGAPGPLTLKEVEELEQLTQQLMQDMEHPQRQNVAVNELCGRCHQPLARAQPAVRALGQLFHIACFTCHQCAQQLQGQQFYSLEGAPYCEGCYTDTLEKCNTCGEPITDRMLRATGKAYHPHCFTCVVCARPLEGTSFIVDQANRPHCVPDYHKQYAPRCSVCSEPIMPEPGRDETVRVVALDKNFHMKCYKCEDCGKPLSIEADDNGCFPLDGHVLCRKCHTARAQT
In the case of B1, the binding entry in assay [1] and in assay [2] was “binds” each time.
